Experimental data published in PubChem BioAssay AID2685 (National Center for Advancing Translational Sciences (NCATS), 2010).
Out of some 320,000 compounds screened, about 2,100 (0.66%) were called active. Inconclusive results, whose numbers are uncertain, are shown with a selection of clear calls. Calls come from the whole dose curve; as a rule, active = well fitted inhibition curve with a large enough effect in the signal ratio, with a control signal flat (not every such curve was filed as active); inconclusive = small, poorly fitted or top-dose-only effect, or effect the other way, or a change in a side signal; inactive = flat fitted curve, though single readings scatter; the % refers to the signal ratio. Where the call is inconclusive, the potency comes from a doubtful curve fit.

experiment: qHTS Assay for Lipid Storage Modulators in Drosophila S3 Cells; conditions: BODIPY lipid droplet fluorescence, 18-24 h, cells fed with added oleic acid; lipid storage change, negative = inhibition: at 46.1 µM (top of the series) unless noted
Procedure, shortened: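 Drosophila S3 cells got compounds at several concentrations plus oleic acid (400 uM solution). Laser-scanning cytometry with 488 nm excitation read lipid droplets at 500-530 nm and cells at 575-640 nm. Percent activity was relative to 20 uM Triacsin C.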
% is set by controls: 0 for no effect and ±100 for the full control effect; potency is the fitted concentration of half-maximal effect.

Row | SMILES | lipid storage change, negative = inhibition | Potency
1 | C=CCn1c(NC)cc(=O)n(C)c1=O | inconclusive: 0.746% | –
2 | CCOc1ccc(NC(=O)C(CC(=O)O)Cc2ccc(C)cc2)cc1 (stereo unspecified) | inconclusive: 28.1% | –
3 | CC(C)CN=C(NS(=O)(=O)c1ccccc1)C(Cl)(Cl)Cl | – | active: 18.4 µM
4 | COc1ccc(NC(=O)CSc2nc3c(sc4ccccc43)c(=O)n2CCCN2CCCC2)cc1 | – | inconclusive: 0.116 µM [rising, full curve, poor fit]
5 | CCc1cccc(C)c1NC(=O)CN(C)C1=NS(=O)(=O)c2ccccc21 | inconclusive: 5.15% | –
6 | Nc1cc(-c2ccc(Cl)cc2)nn1S(=O)(=O)c1cccc2nsnc12 | – | inconclusive: 0.206 µM [activator, full curve, poor fit]
7 | COc1ccc(-n2cc(CNCCc3cscn3)c(-c3ccccc3Cl)n2)cc1 | inconclusive: 18.9% | –
8 | CC(C)Cc1nc2ccccc2[nH]1 | inconclusive: 14.2% | –
9 | COc1ccc(CNC(=O)C(c2ccccc2F)N(C(=O)c2csnn2)C2CC2)cc1 (stereo unspecified) | inactive: 16.9% | –
10 | CCC(C)(C)NC(=O)C(c1ccccc1Cl)N(Cc1cccnc1)C(=O)CCC(=O)Nc1cc(C)on1 (stereo unspecified) | – | inconclusive: 0.58 µM [activator, single point]
11 | Cc1c(N/C=C(\Cl)C(=O)C(F)(F)F)c(=O)n(-c2ccccc2)n1C | inconclusive: 30.6% | –
12 | O=C(CN1C(=O)C2CC=CCC2C1=O)NC1CCCCC1 (stereo unspecified) | inconclusive: 23.9% [at 9.22 µM] | –
13 | COc1ccccc1NC(=S)NC(=O)c1c(-c2ccccc2Cl)noc1C | inconclusive: 13% | –
14 | O=C(N/C=C/c1ccc(Cl)cc1)NCc1ccc(Cl)cc1 | inconclusive: -11% | –
15 | Nc1nc(NC(=O)c2cccc(S(=O)(=O)N3CCCCCC3)c2)nc(-c2ccccc2)n1 | inconclusive: 17.4% | –
16 | CC(=O)OCCCNc1cc(Sc2nc3ccccc3s2)c2nonc2c1[N+](=O)[O-] | inconclusive: 0.56% | –
17 | CCCn1c2ccccc2c2cnn(CC(=O)NCCCN3CCN(c4ccccc4)CC3)c(=O)c21 | – | inconclusive: 6.51 µM [activator, single point]
18 | Cc1cc(C)c(C)c(S(=O)(=O)N2CCN(Cc3nc4ccccc4[nH]3)CC2)c1C | inconclusive: 14.1% | –
19 | CCOC(=O)CNC(=O)c1sc(NC(=O)c2ccccc2F)nc1C | inconclusive: 13.5% | –
20 | CC(=O)N1N=C(c2cccc(Cl)c2)OC1c1ccc(C(C)C)cc1 (stereo unspecified) | – | inconclusive: 6.51 µM [falling, single point]
21 | O=C(O)CC12CC3CC(C1)CC(n1ncc(NCc4ccc5c(c4)OCO5)c(Cl)c1=O)(C3)C2 | inactive: 2.72% | –

Part of the list above, set out differently:
Row	SMILES	lipid storage change, negative = inhibition	Potency
6	Nc1cc(-c2ccc(Cl)cc2)nn1S(=O)(=O)c1cccc2nsnc12	–	inconclusive: 0.206 µM [activator, full curve, poor fit]
7	COc1ccc(-n2cc(CNCCc3cscn3)c(-c3ccccc3Cl)n2)cc1	inconclusive: 18.9%	–
